PubChem BioAssay AID1224830, NIAID, 2016

Test: 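Regulators of TLR4 signalling towards TNF-alpha in macrophage-like cells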 (primary screen)
Cells: human THP-1 monocytic leukaemia cells, TNF dual-luciferase reporter clone, PMA-differentiated to macrophage-like cells
Reagent: siRNA pool against human genes, 50 nM
Timing: LPS for 4 h, given about 3 days after siRNA transfection
Conditions: bacterial LPS (TLR4 ligand), 10 ng/ml
Read-out: 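TNF firefly reporter luminescence divided by renilla, normalised to the plate median, then turned into a robust z-score for each replicate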
Direction: TNF reporter robust z-score: higher = stronger TNF reporter response to LPS
Rule for the call: 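Each well counts as active if its z-score is over 2.8 or under -1.5; controls are left without a call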
Shown is a random part of about 18,000 deposited reagents. About 2,900 of them (16%) were called active. 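Calls are made per well; low scores hint the gene aids the LPS response, high scores that it dampens it.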 Entries without a mark were called inactive. Repeated entries: four replicate wells of each siRNA pool. Reagent sequences are not shown.

no.	Gene	TNF reporter robust z-score
1	MED31 (mediator complex subunit 31)	-0.66
2	MED31 (mediator complex subunit 31)	-0.88
3	MED31 (mediator complex subunit 31)	-1.5
4	MED31 (mediator complex subunit 31)	-0.26
5	CCDC6 (coiled-coil domain containing 6)	-0.92
6	CCDC6 (coiled-coil domain containing 6)	-0.54
7	CCDC6 (coiled-coil domain containing 6)	-0.17
8	CCDC6 (coiled-coil domain containing 6)	0.22
9	RASSF2 (Ras association domain family member 2)	2.26
10	RASSF2 (Ras association domain family member 2)	0.45
11	RASSF2 (Ras association domain family member 2)	0.46
12	RASSF2 (Ras association domain family member 2)	1.74
13	LOX (lysyl oxidase)	-0.07
14	LOX (lysyl oxidase)	0.39
15	LOX (lysyl oxidase)	-0.01
16	LOX (lysyl oxidase)	-0.67
17	ZNF207 (zinc finger protein 207)	-0.6
18	ZNF207 (zinc finger protein 207)	0.15
19	ZNF207 (zinc finger protein 207)	0.35
20	ZNF207 (zinc finger protein 207)	-0.04
21	PARP3 (poly(ADP-ribose) polymerase family member 3)	-0.87
22	PARP3 (poly(ADP-ribose) polymerase family member 3)	0.79
23	PARP3 (poly(ADP-ribose) polymerase family member 3)	-0.38
24	SERTM1 (serine rich and transmembrane domain containing 1)	-0.69
25	SERTM1 (serine rich and transmembrane domain containing 1)	-0.49
26	SERTM1 (serine rich and transmembrane domain containing 1)	-0.81
27	SERTM1 (serine rich and transmembrane domain containing 1)	-0.22
28	GSX1 (GS homeobox 1)	-0.75
29	GSX1 (GS homeobox 1)	-0.73
30	GSX1 (GS homeobox 1)	-0.61
31	GSX1 (GS homeobox 1)	-0.78
32	NSRP1 (nuclear speckle splicing regulatory protein 1)	-1.76 (active)
33	NSRP1 (nuclear speckle splicing regulatory protein 1)	-1.27
34	NSRP1 (nuclear speckle splicing regulatory protein 1)	-1.38
35	NSRP1 (nuclear speckle splicing regulatory protein 1)	-0.61
36	HIF1AN (hypoxia inducible factor 1 subunit alpha inhibitor)	0.22
37	HIF1AN (hypoxia inducible factor 1 subunit alpha inhibitor)	2.28
38	HIF1AN (hypoxia inducible factor 1 subunit alpha inhibitor)	0.08
39	HIF1AN (hypoxia inducible factor 1 subunit alpha inhibitor)	0.13
40	KCNN4 (potassium calcium-activated channel subfamily N member 4)	-0.57
41	KCNN4 (potassium calcium-activated channel subfamily N member 4)	-1.05
42	KCNN4 (potassium calcium-activated channel subfamily N member 4)	-0.23
43	KCNN4 (potassium calcium-activated channel subfamily N member 4)	-0.36
44	STX11 (syntaxin 11)	0.16
45	STX11 (syntaxin 11)	-0.7
46	STX11 (syntaxin 11)	0.03
47	STX11 (syntaxin 11)	-0.16
48	SH3BGR (SH3 domain binding glutamate rich protein)	-0.97
49	SH3BGR (SH3 domain binding glutamate rich protein)	-1.19
50	SH3BGR (SH3 domain binding glutamate rich protein)	-0.06
51	ACP1 (acid phosphatase 1)	0.77
52	ACP1 (acid phosphatase 1)	0.44
53	ACP1 (acid phosphatase 1)	0.11
54	ACP1 (acid phosphatase 1)	0.31
55	TRMT9B (tRNA methyltransferase 9B (putative))	-0.57
56	TRMT9B (tRNA methyltransferase 9B (putative))	0.37
57	TRMT9B (tRNA methyltransferase 9B (putative))	-0.28
58	TRMT9B (tRNA methyltransferase 9B (putative))	-0.55
59	BTF3L4 (basic transcription factor 3 like 4)	-0.03
60	BTF3L4 (basic transcription factor 3 like 4)	2.39
61	BTF3L4 (basic transcription factor 3 like 4)	0.49
62	BTF3L4 (basic transcription factor 3 like 4)	0.97
63	CPNE8 (copine 8)	3.11 (active)
64	CPNE8 (copine 8)	4.34 (active)
65	CPNE8 (copine 8)	3.09 (active)
66	CPNE8 (copine 8)	3.03 (active)
67	UROC1 (urocanate hydratase 1)	-0.75
68	UROC1 (urocanate hydratase 1)	-0.6
69	UROC1 (urocanate hydratase 1)	-0.54
70	UROC1 (urocanate hydratase 1)	-0.32
71	USP27X (ubiquitin specific peptidase 27 X-linked)	-0.13
72	USP27X (ubiquitin specific peptidase 27 X-linked)	0.17
73	USP27X (ubiquitin specific peptidase 27 X-linked)	0.43
74	USP27X (ubiquitin specific peptidase 27 X-linked)	0.9
75	KCMF1 (potassium channel modulatory factor 1)	5.83 (active)
76	KCMF1 (potassium channel modulatory factor 1)	3.58 (active)
77	KCMF1 (potassium channel modulatory factor 1)	2.92 (active)
78	KCMF1 (potassium channel modulatory factor 1)	1.31
79	CD53 (CD53 molecule)	0.2
80	CD53 (CD53 molecule)	0.72
81	CD53 (CD53 molecule)	0.24
82	CD53 (CD53 molecule)	-0.1
83	ACAT1 (acetyl-CoA acetyltransferase 1)	2.07
84	ACAT1 (acetyl-CoA acetyltransferase 1)	2.32
85	ACAT1 (acetyl-CoA acetyltransferase 1)	6.85 (active)
86	ACAT1 (acetyl-CoA acetyltransferase 1)	0.36
87	PRPS1L1 (phosphoribosyl pyrophosphate synthetase 1 like 1)	1.55
88	PRPS1L1 (phosphoribosyl pyrophosphate synthetase 1 like 1)	-1.02
89	PRPS1L1 (phosphoribosyl pyrophosphate synthetase 1 like 1)	0.35
90	PRPS1L1 (phosphoribosyl pyrophosphate synthetase 1 like 1)	2.18
91	VSNL1 (visinin like 1)	-1.18
92	VSNL1 (visinin like 1)	-0.71
93	VSNL1 (visinin like 1)	-0.83
94	VSNL1 (visinin like 1)	-1.2
95	POU2AF2 (POU class 2 homeobox associating factor 2)	-0.47
96	POU2AF2 (POU class 2 homeobox associating factor 2)	-0.63
97	POU2AF2 (POU class 2 homeobox associating factor 2)	-1.35
98	POU2AF2 (POU class 2 homeobox associating factor 2)	-1.6 (active)
99	HEXB (hexosaminidase subunit beta)	-0.56
100	HEXB (hexosaminidase subunit beta)	-1.19
101	HEXB (hexosaminidase subunit beta)	-0.53
102	HEXB (hexosaminidase subunit beta)	-0.33
103	HHEX (hematopoietically expressed homeobox)	0
104	HHEX (hematopoietically expressed homeobox)	0.31
105	HHEX (hematopoietically expressed homeobox)	0.33
106	HHEX (hematopoietically expressed homeobox)	0.52
107	VKORC1 (vitamin K epoxide reductase complex subunit 1)	-0.5
108	VKORC1 (vitamin K epoxide reductase complex subunit 1)	1.95
109	VKORC1 (vitamin K epoxide reductase complex subunit 1)	0.43
110	VKORC1 (vitamin K epoxide reductase complex subunit 1)	3.98 (active)

Records listed so far whose gene name begins with R or r:
Gene	TNF reporter robust z-score
RASSF2 (Ras association domain family member 2)	2.26
RASSF2 (Ras association domain family member 2)	0.45
RASSF2 (Ras association domain family member 2)	0.46
RASSF2 (Ras association domain family member 2)	1.74
